Assay results reported in article PMC9659186.
No constants are given. Whether binding was seen depends on the method and setting. Binding seen in cells or lysates may run through a third protein. A result given as binding can be weak or reduced; the word gives no strength. One block for each binder: values may come before it.

Molecular target: GFP-StATG8-2.1 (potato (Solanum tuberosum))
Test: co-IP; GFP-StATG8-2.1 co-expressed with AtWRKY-HF in N. benthamiana leaves; total protein extracts in GTEN buffer (150 mM Tris-HCl pH 7.5, 150 mM NaCl, 10% glycerol, 10 mM EDTA, 10 mM DTT); precipitated with GFP Trap A beads, two hours in the cool room; blots with anti-GFP and anti-FLAG

binding: no binding
B1: AtWRKY38-HF (protein, UniProt Q8GWF1 1-289)
chain: MEMNSPHEKAVQAIRYGHSCAMRLKRRLNHPMADGGPLSSYDLAKSIVESFSNAISILSAKPETEDDQFSDLSSRDSSPPPQGSPSKKRKIDSTNSSENWRDDSPDPIYYDGYLWRKYGQKSIKKSNHQRSYYRCSYNKDHNCEARKHEQKIKDNPPVYRTTYFGHHTCKTEHNLDAIFIAGQDPLDDFKSTQMIRFGKDQDQEKESRSNGFSLSVKHEEDIIKEQAIDQYREITSNDQDCQDVIEEYLSSPSGSYPPSSSSGSESADFNSDLLFDNPDSWDRYDQFYF

binding: binds
B2: AtWRKY22-HF (protein, UniProt O04609 1-298)
chain: MADDWDLHAVVRGCSAVSSSATTTVYSPGVSSHTNPIFTVGRQSNAVSFGEIRDLYTPFTQESVVSSFSCINYPEEPRKPQNQKRPLSLSASSGSVTSKPSGSNTSRSKRRKIQHKKVCHVAAEALNSDVWAWRKYGQKPIKGSPYPRGYYRCSTSKGCLARKQVERNRSDPKMFIVTYTAEHNHPAPTHRNSLAGSTRQKPSDQQTSKSPTTTIATYSSSPVTSADEFVLPVEDHLAVGDLDGEEDLLSLSDTVVSDDFFDGLEEFAAGDSFSGNSAPASFDLSWVVNSAATTTGGI

binding: binds
B3: AtWRKY40-HF (protein, UniProt Q9SAH7 1-302)
chain: MDQYSSSLVDTSLDLTIGVTRMRVEEDPPTSALVEELNRVSAENKKLSEMLTLMCDNYNVLRKQLMEYVNKSNITERDQISPPKKRKSPAREDAFSCAVIGGVSESSSTDQDEYLCKKQREETVVKEKVSRVYYKTEASDTTLVVKDGYQWRKYGQKVTRDNPSPRAYFKCACAPSCSVKKKVQRSVEDQSVLVATYEGEHNHPMPSQIDSNNGLNRHISHGGSASTPVAANRRSSLTVPVTTVDMIESKKVTSPTSRIDFPQVQKLLVEQMASSLTKDPNFTAALAAAVTGKLYQQNHTEK
